Laboratory results from publication PMC7476762.
No constants are given. Whether binding was seen depends on the method and setting. In cells and extracts the contact can be indirect. Some results given as binding are weak or reduced against the parent protein; the word gives no strength.

Protein sequences, listed by entry. Tags and fused reporters are not part of them. Residues count along the entry.
UniProt P01024, residues 672-748: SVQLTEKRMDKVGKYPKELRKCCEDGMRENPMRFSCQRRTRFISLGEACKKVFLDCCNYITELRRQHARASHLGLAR

Biological target: T1, C3aR (human (endogenous in hNSC)) (UniProt Q16581)
T1 sequence: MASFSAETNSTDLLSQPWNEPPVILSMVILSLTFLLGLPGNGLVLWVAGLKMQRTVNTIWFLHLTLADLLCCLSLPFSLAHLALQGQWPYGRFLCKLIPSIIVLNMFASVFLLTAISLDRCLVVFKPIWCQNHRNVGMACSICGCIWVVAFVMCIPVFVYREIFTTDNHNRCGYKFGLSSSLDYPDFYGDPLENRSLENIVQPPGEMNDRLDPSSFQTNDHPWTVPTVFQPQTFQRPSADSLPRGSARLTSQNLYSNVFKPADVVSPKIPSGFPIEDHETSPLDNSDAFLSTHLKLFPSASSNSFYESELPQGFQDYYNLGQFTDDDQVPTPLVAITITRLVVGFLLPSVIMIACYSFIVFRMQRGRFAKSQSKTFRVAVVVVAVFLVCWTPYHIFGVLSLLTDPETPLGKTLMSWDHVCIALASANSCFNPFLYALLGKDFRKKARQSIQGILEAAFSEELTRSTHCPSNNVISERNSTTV
Experiment: proximity ligation; matched ligand-receptor positive control C3a-C3aR on hNSC; Duolink in situ Red kit; fluorescent punctae per cell counted; source and concentration of C3a not told

C3a (from UniProt P01024 672-748) (ligand)
binding: binds
